This is an account of results in doi:10.1101/571315.

By UniProt entry, the sequences of proteins in these tests, tags left out.
UniProt P39880: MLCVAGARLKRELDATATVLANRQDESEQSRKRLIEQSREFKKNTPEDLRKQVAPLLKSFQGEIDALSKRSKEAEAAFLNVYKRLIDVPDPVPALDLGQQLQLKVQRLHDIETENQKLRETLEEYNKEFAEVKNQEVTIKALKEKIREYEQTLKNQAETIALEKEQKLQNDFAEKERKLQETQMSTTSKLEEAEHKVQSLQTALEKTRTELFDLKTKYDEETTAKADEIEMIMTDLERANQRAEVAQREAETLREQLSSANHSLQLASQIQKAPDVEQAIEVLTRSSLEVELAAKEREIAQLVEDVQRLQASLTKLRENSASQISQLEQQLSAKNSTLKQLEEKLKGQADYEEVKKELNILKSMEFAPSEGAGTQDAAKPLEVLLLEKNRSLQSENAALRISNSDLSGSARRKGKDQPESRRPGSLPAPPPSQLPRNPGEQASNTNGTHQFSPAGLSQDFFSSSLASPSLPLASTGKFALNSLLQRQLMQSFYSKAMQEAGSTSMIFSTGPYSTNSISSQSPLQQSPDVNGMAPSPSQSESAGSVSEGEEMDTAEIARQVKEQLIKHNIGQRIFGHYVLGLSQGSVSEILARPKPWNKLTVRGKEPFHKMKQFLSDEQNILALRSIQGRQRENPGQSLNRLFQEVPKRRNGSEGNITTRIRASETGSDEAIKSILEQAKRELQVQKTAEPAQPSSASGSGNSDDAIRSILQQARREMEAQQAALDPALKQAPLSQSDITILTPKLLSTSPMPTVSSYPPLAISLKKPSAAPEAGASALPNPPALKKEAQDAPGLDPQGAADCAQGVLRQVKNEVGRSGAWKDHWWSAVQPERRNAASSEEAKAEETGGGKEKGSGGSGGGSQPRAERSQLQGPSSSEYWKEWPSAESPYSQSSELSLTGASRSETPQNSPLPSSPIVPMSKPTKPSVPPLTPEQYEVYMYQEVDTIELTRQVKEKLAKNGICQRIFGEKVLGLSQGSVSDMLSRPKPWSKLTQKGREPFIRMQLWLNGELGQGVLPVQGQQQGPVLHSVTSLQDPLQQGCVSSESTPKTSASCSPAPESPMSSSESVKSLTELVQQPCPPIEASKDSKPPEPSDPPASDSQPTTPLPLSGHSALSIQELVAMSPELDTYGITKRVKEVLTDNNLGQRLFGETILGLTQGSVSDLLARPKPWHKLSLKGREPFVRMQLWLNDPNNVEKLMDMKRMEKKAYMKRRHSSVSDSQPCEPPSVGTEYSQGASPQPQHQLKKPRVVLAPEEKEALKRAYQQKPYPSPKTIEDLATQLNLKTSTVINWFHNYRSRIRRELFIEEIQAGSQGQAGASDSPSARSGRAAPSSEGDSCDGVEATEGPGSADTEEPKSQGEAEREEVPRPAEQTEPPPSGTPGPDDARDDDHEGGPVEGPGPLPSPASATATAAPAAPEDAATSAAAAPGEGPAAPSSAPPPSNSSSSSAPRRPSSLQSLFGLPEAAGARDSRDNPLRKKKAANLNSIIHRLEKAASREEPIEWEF
UniProt Q04206: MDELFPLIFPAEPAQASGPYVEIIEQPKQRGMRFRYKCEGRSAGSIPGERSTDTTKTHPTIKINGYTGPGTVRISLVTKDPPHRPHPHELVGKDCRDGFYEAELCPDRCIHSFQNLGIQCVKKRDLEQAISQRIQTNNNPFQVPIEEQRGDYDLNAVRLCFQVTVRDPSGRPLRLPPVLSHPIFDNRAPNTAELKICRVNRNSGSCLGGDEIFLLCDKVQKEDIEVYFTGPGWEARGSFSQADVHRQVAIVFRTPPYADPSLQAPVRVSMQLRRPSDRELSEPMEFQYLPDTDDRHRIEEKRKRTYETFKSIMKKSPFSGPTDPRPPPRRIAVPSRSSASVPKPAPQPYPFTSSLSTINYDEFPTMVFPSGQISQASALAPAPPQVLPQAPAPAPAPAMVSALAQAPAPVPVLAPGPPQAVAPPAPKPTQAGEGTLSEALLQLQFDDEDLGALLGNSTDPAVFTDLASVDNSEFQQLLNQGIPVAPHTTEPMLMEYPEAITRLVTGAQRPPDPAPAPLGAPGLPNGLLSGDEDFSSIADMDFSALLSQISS

Holding throughout (assay): co-IP
Assay [1] concerns the target cut like homeobox 1 (CUX1) (human (endogenous in synovial fibroblasts)) (UniProt P39880).
Assay [2] concerns the target T1, NF-κB p100/52 (human (endogenous in synovial fibroblasts)) (UniProt Q00653).
T1 sequence: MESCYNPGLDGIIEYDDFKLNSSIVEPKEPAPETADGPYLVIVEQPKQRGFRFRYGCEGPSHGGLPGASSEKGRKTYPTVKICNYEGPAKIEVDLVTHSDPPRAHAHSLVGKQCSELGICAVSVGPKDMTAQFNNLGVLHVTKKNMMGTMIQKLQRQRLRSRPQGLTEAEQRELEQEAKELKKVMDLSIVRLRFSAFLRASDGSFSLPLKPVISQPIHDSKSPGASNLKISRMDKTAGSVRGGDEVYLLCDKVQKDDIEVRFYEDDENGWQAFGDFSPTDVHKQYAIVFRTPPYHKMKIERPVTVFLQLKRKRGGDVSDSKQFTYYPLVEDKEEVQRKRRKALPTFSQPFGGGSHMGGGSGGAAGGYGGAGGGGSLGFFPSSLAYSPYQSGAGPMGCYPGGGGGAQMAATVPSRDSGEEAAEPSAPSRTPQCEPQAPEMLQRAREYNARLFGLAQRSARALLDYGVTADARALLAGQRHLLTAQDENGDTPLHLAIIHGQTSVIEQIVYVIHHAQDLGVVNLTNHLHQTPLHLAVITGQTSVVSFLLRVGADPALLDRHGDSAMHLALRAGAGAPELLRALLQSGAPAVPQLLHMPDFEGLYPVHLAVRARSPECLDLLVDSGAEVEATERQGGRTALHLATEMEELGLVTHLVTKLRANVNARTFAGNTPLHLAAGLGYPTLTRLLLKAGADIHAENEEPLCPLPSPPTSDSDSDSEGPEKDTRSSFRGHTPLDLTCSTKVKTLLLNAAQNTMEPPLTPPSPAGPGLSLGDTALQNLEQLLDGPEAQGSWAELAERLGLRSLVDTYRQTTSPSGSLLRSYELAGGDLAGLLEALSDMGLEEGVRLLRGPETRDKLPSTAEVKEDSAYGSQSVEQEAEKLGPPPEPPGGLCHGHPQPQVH

The target of assay [3] is NF-κB p65 (human (endogenous in synovial fibroblasts)) (UniProt Q04206).

These are yes or no findings as the source states them, for the method shown. In cells and extracts the contact can be indirect. Some entries that bind do so weakly or less than the wild type.

Consider NF-κB p65 (from UniProt Q04206 1-551), for which, in assay [1], the binding entry is on record as “binds”.

B1: atypical IκB factor IκBζ (protein, UniProt Q9BYH8 1-718)
chain: MIVDKLLDDSRGGEGLRDAAGGCGLMTSPLNLSYFYGASPPAAAPGACDASCSVLGPSAPGSPGSDSSDFSSASSVSSCGAVESRSRGGARAERQPVEPHMGVGRQQRGPFQGVRVKNSVKELLLHIRSHKQKASGQAVDDFKTQGVNIEQFRELKNTVSYSGKRKGPDSLSDGPACKRPALLHSQFLTPPQTPTPGESMEDVHLNEPKQESSADLLQNIINIKNECSPVSLNTVQVSWLNPVVVPQSSPAEQCQDFHGGQVFSPPQKCQPFQVRGSQQMIDQASLYQYSPQNQHVEQQPHYTHKPTLEYSPFPIPPQSPAYEPNLFDGPESQFCPNQSLVSLLGDQRESENIANPMQTSSSVQQQNDAHLHSFSMMPSSACEAMVGHEMASDSSNTSLPFSNMGNPMNTTQLGKSLFQWQVEQEESKLANISQDQFLSKDADGDTFLHIAVAQGRRALSYVLARKMNALHMLDIKEHNGQSAFQVAVAANQHLIVQDLVNIGAQVNTTDCWGRTPLHVCAEKGHSQVLQAIQKGAVGSNQFVDLEATNYDGLTPLHCAVIAHNAVVHELQRNQQPHSPEVQELLLKNKSLVDTIKCLIQMGAAVEAKDRKSGRTALHLAAEEANLELIRLFLELPSCLSFVNAKAYNGNTALHVAASLQYRLTQLDAVRLLMRKGADPSTRNLENEQPVHLVPDGPVGEQIRRILKGKSIQQRAPPY
For the molecule B1, the binding entry in assay [2] and in assay [3] was “binds” throughout.
